# Laboratory results published in PubChem BioAssay (EPA / NIEHS).
# The chains behind the UniProt entries cited, without tags or fusion partners. Where a name states a change or a piece, a line headed by the entry shows the natural chain unless it says otherwise.
# UniProt P51449: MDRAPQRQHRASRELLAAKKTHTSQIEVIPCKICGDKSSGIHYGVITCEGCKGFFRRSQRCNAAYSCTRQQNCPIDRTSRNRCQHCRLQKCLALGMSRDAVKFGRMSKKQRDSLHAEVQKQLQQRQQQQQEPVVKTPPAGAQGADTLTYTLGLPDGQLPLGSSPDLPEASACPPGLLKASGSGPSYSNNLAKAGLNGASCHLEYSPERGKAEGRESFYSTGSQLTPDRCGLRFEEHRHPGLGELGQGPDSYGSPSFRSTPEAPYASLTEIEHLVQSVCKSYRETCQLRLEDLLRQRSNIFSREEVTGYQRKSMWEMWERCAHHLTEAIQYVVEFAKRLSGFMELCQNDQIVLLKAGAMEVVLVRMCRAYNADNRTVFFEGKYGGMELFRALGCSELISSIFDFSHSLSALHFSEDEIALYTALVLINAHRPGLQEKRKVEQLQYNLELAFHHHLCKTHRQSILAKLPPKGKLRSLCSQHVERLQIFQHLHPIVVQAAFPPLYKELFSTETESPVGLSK
# Values joined by “and” are separate entries in the source; they are usually repeats but may differ in a detail not shown here. Equal entries are not always repeated. The inconclusive results got no clear call from the source; some entries with a clear call stand among them for comparison. Potencies beside an inconclusive call are fits to weak or partial responses and may not hold up. Active and inactive are the calls of the source. The calls were made as follows: active = hit-call score of the fitted dose curve at least 0.9, where 1 is the maximum; inconclusive = response in the unintended direction; inactive = score below 0.9.
# Biological target: human RAR-related Orphan Receptor gamma (RORg), RORC (gene 6097) (UniProt P51449)
# Assay: ATG_RORg_TRANS: Attagene TRANS-FACTORIAL HepG2 Assay for human RAR-related Orphan Receptor gamma (RORg) (AID 2283011);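 as to AC50: potency for induction of reporter transcripts above DMSO so activators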
# How it was run: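 Transient MRTU transfection of HepG2 (TRANS format, exogenous NR-Gal4 chimera). 24 h dosing. Total RNA → oligo(dT) RT → PCR → 6-FAM labelling → HpaI cut → CE. Gain vs DMSO.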
SMILES,AC50,outcome
Nc1c(Cl)c(Cl)nc(C(=O)O)c1Cl,–,inactive
C[C@H]1O[C@@H](O[C@H]2[C@@H](O)C[C@H](O[C@H]3[C@@H](O)C[C@H](O[C@H]4CC[C@@]5(C)[C@H](CC[C@@H]6[C@@H]5CC[C@]5(C)[C@@H](C7=CC(=O)OC7)CC[C@]65O)C4)O[C@@H]3C)O[C@@H]2C)C[C@H](O)[C@@H]1O,inconclusive: 68.5 µM,–
CCC[CH2][Sn]([Cl])([CH2]CCC)[CH2]CCC,inconclusive: 0.361 µM,–
CC(C)(C)c1cc([N+](=O)[O-])cc(C(C)(C)C)c1O,inconclusive: 100 µM,–
O=c1oc2ccccc2c(O)c1C(CC(O)c1ccc(-c2ccc(Br)cc2)cc1)c1ccccc1 (stereo not drawn),inconclusive: 31.6 µM and inconclusive: 8.46 µM,–
CCC(C)c1ccc(O)cc1 (stereo not drawn),inconclusive: 0.00929 µM,–
O=C(Cc1ccccc1)c1ccccc1,inconclusive: 100 µM,–
O=C(Cl)OCCOCCOC(=O)Cl,inconclusive: 100 µM,–
C=CCC1=C(C)C(OC(=O)C2C(C=C(C)C)C2(C)C)CC1=O (stereo not drawn),–,inactive
CC(=[OH+])/C=C(/C)[O-].CC(=[OH+])/C=C(/C)[O-].CC(=[OH+])/C=C(/C)[O-].[Al],–,inactive

# Reformatted with tabs: 2 of the compounds above
SMILES	AC50	outcome
Nc1c(Cl)c(Cl)nc(C(=O)O)c1Cl	–	inactive
C[C@H]1O[C@@H](O[C@H]2[C@@H](O)C[C@H](O[C@H]3[C@@H](O)C[C@H](O[C@H]4CC[C@@]5(C)[C@H](CC[C@@H]6[C@@H]5CC[C@]5(C)[C@@H](C7=CC(=O)OC7)CC[C@]65O)C4)O[C@@H]3C)O[C@@H]2C)C[C@H](O)[C@@H]1O	inconclusive: 68.5 µM	–
